Measured values reported in PMC3141063.
These are yes or no findings as the source states them, for the method shown. Binding seen in cells or lysates may run through a third protein. Tags and fused reporters may be left off the sequences shown.

Target: T1, HA-Alba1 (Trypanosoma brucei) (UniProt Q385X1)
T1 sequence: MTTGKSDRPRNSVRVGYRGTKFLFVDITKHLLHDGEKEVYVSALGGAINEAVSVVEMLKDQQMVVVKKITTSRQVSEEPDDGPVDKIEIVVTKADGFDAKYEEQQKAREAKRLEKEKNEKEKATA
Test: co-IP; HA-tagged bait induced with tetracycline in procyclic T. brucei; extract in IP buffer (20 mM Tris-HCl pH 7.6, 150 mM NaCl, 1 mM EDTA, 1 mM DTT, 0.5% NP-40) with RNase inhibitor; anti-HA affinity matrix, 2 h, 4°C; immunoblot with Alba-specific or anti-P0 antibodies; cycloheximide or puromycin before the CoIP did not affect Alba3/eIF4E4

binding: no binding
B1: Alba2 (protein, UniProt Q385X2 1-117)
chain: MSEKGGDDSRSSQVRVSVKRRNFSYVDSIKVRLSGGKPEVTISALGKAISDAVAVAEILKNQGLIDVKKITTSRGAAESDGDAVNDKIEILITKSKDFDTIYAEQQKRKLENADKKE
